Data as given in PubChem BioAssay AID1508588 (Peter MacCallum Cancer Centre, 2020)
In all, the deposit lists about 18,000 reagents; shown is an unselected part. 790 of all reagents (4.4%) were called active. 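Calls rest on a combination of fold-change classes in drug and vehicle arms, not all shown here.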

Screen: 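Which gene losses make BRAF-mutant melanoma cells more responsive to vemurafenib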 (primary screen)
Cells: human WM266.4 melanoma cells (BRAF V600 mutant)
Reagent: siRNA pool against human genes, 40 nM
Duration: 96 h from transfection to read-out
Treatment: vemurafenib 300 nM (about IC25), added 48 h after transfection, for 48 h; comparison arm got DMSO vehicle only
Read-out: 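Cell gain (DAPI nuclei at end minus before drug, mean of two replicates) and medium lactate by absorbance per cell, both as ratio to non-targeting siRNA, also grouped into fold-change classes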
Reading the numbers: cell gain with vemurafenib: higher = more cell gain than with non-targeting siRNA; lactate per cell with vemurafenib: higher = more lactate made per cell
Rule for the call: 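Enhancement is called by pairing each knock-down's vehicle-arm and drug-arm fold-change classes for viability or glycolysis; which class combinations qualify is not given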
Calls: active = enhances vemurafenib effect; inactive = no enhancement seen

| Gene | cell gain with vemurafenib | lactate per cell with vemurafenib | activity call |
| --- | --- | --- | --- |
| SPTSSA (GeneID 171546) | 0.33 | 0.66 | inactive |
| TMED1 (GeneID 11018) | 0.69 | 0.59 | inactive |
| KRAS (GeneID 3845) | 0.06 | 1.27 | inactive |
| OR1A2 (GeneID 26189) | 0.35 | 1.09 | inactive |
| EPO (GeneID 2056) | 0.37 | 0.35 | inactive |
| RPS25 (GeneID 6230) | -0.08 | 1.21 | inactive |
| TFDP1 (GeneID 7027) | 0.13 | 0.64 | inactive |
| DMAC2L (GeneID 27109) | 0.56 | 1.33 | inactive |
| LRRC7 (GeneID 57554) | 1.11 | 0.92 | inactive |
| ZNF480 (GeneID 147657) | 1.01 | 0.39 | inactive |
| ADPGK (GeneID 83440) | 0.42 | 1 | inactive |
| RIN3 (GeneID 79890) | 1.09 | 0.72 | inactive |
| TENM1 (GeneID 10178) | 0.17 | 1.22 | active |
| PGC (GeneID 5225) | 0.56 | 1.65 | inactive |
| SMG9 (GeneID 56006) | 0.63 | 1.38 | inactive |
| DBNDD2 (GeneID 55861) | 0.75 | 1.06 | inactive |
| ZNF658B (GeneID 401509) | 0.96 | 1.16 | inactive |
| PCDHB6 (GeneID 56130) | 1 | 0.87 | inactive |
| IREB2 (GeneID 3658) | 0.46 | 0.82 | inactive |
| CCNB1 (GeneID 891) | 0.3 | 1.28 | inactive |
| ZKSCAN3 (GeneID 80317) | 0.78 | 0.68 | inactive |
| QPRT (GeneID 23475) | 0.05 | 0.63 | active |
| CEP162 (GeneID 22832) | 1.04 | 0.92 | inactive |
| PTCD2 (GeneID 79810) | 0.1 | 1.71 | inactive |
| SEC62 (GeneID 7095) | 0.66 | 0.6 | inactive |
| PARP12 (GeneID 64761) | 0.47 | 0.5 | inactive |
| RHBDF2 (GeneID 79651) | 0.81 | 0.68 | inactive |
| DHRS12 (GeneID 79758) | 0.98 | 0.77 | inactive |
| ITIH5 (GeneID 80760) | 0.87 | 0.48 | inactive |
| HIPK2 (GeneID 28996) | 1.2 | 0.62 | inactive |
| P4HTM (GeneID 54681) | 0.89 | 1.07 | inactive |
| PAH (GeneID 5053) | 0.39 | 1.89 | inactive |
| TSPYL6 (GeneID 388951) | 0.88 | 1 | inactive |
| RASGEF1B (GeneID 153020) | 0.69 | 1.5 | inactive |
| NUDT6 (GeneID 11162) | 0.3 | 1.15 | inactive |
| CRIP1 (GeneID 1396) | 0.36 | 0.5 | inactive |
| CDYL2 (GeneID 124359) | 0.64 | 1.23 | inactive |
| FKBP9 (GeneID 11328) | 0.84 | 0.6 | inactive |
| PUS1 (GeneID 80324) | 0.65 | 2.07 | inactive |
| SH3RF2 (GeneID 153769) | 0.88 | 0.98 | inactive |
| FOXJ1 (GeneID 2302) | 0.77 | 0.9 | inactive |
| TMEM164 (GeneID 84187) | 0.36 | 0.81 | inactive |
| PLEKHB1 (GeneID 58473) | 0.32 | 1.49 | inactive |
| MMP7 (GeneID 4316) | 0.8 | 1.21 | inactive |
| CDPF1 (GeneID 150383) | 0.27 | 1.64 | inactive |
| MYF5 (GeneID 4617) | 0.25 | 1.73 | inactive |
| MUL1 (GeneID 79594) | 1.17 | 0.88 | inactive |
| ZNF3 (GeneID 7551) | 0.33 | 0.55 | inactive |
| PHLPP2 (GeneID 23035) | 0.54 | 1.12 | inactive |
| VAX2 (GeneID 25806) | 0.99 | 0.27 | inactive |
| CNR1 (GeneID 1268) | 0.84 | 1.27 | inactive |
| FUNDC2 (GeneID 65991) | 0.63 | 0.72 | inactive |
| MGAT4C (GeneID 25834) | 1.16 | 0.91 | inactive |
| ASCC3 (GeneID 10973) | 0.3 | 1.39 | inactive |
| LOXL4 (GeneID 84171) | 1.16 | 0.66 | inactive |
| NCKAP5L (GeneID 57701) | 0.78 | 0.62 | inactive |
| CFAP70 (GeneID 118491) | 0.64 | 1.66 | inactive |
| PTPN22 (GeneID 26191) | 0.38 | 0.54 | inactive |
| CCR8 (GeneID 1237) | 0.41 | 1.52 | inactive |
| ZNF526 (GeneID 116115) | 1.18 | 0.95 | inactive |
| NLGN4Y (GeneID 22829) | 0.6 | 1.19 | inactive |
| ART1 (GeneID 417) | 0.66 | 0.8 | inactive |
| NRGN (GeneID 4900) | 0.83 | 1.32 | inactive |
| FZD3 (GeneID 7976) | 0.55 | 0.62 | inactive |
| PRXL2B (GeneID 127281) | 0.69 | 0.72 | inactive |
| GLIS3 (GeneID 169792) | 0.23 | 0.22 | inactive |
| CHRDL1 (GeneID 91851) | 0.38 | 1.06 | inactive |
| LPIN1 (GeneID 23175) | 0.58 | 1.4 | inactive |
| ZNF84 (GeneID 7637) | 0.63 | 0.84 | inactive |
| KRABD3 (GeneID 84626) | 0.37 | 1.7 | inactive |
| USP24 (GeneID 23358) | 0.27 | 0.82 | inactive |
| RBBP9 (GeneID 10741) | 0.41 | 1 | inactive |
| CALM2 (GeneID 805) | 0.13 | 0.76 | inactive |
| TRIB3 (GeneID 57761) | 0.16 | 0.28 | active |
| TNFAIP1 (GeneID 7126) | 0.72 | 0.88 | inactive |
| ZNF613 (GeneID 79898) | 0.21 | 1.04 | inactive |
| AP1S3 (GeneID 130340) | 1.08 | 0.46 | inactive |
| EBP (GeneID 10682) | 1.11 | 0.51 | inactive |
| UXT (GeneID 8409) | 0.99 | 0.88 | inactive |
| RHOQ (GeneID 23433) | 0.48 | 1.23 | inactive |
| CST9 (GeneID 128822) | 0.51 | 0.57 | inactive |
| TEPSIN (GeneID 146705) | 1.12 | 0.53 | inactive |
| RASL12 (GeneID 51285) | 0.6 | 0.82 | inactive |
| BCHE (GeneID 590) | 0.74 | 0.9 | inactive |

9 entries from above, showing only “lactate per cell with vemurafenib”.
GLIS3 (GeneID 169792)	0.22
CHRDL1 (GeneID 91851)	1.06
LPIN1 (GeneID 23175)	1.4
ZNF84 (GeneID 7637)	0.84
KRABD3 (GeneID 84626)	1.7
USP24 (GeneID 23358)	0.82
RBBP9 (GeneID 10741)	1
CALM2 (GeneID 805)	0.76
TRIB3 (GeneID 57761)	0.28
